According to PMC3097235:
No constants are given. Whether binding was seen depends on the method and setting. Binding seen in cells or lysates may run through a third protein. Some results given as binding are weak or reduced against the parent protein; the word gives no strength. Sequences can lack the tags named with a protein.

Tests used:
Assay in all cases: co-IP; HEK 293 cells co-transfected with tyrosinase constructs and EDEM1, pulse-chased for 20 min; lysates precipitated with T311 anti-tyrosinase antibodies; autoradiography
[1] = target: T1, human tyrosinase N-glycosylation mutant Δ7 (N371Q) (human) (UniProt P14679)
T1 sequence: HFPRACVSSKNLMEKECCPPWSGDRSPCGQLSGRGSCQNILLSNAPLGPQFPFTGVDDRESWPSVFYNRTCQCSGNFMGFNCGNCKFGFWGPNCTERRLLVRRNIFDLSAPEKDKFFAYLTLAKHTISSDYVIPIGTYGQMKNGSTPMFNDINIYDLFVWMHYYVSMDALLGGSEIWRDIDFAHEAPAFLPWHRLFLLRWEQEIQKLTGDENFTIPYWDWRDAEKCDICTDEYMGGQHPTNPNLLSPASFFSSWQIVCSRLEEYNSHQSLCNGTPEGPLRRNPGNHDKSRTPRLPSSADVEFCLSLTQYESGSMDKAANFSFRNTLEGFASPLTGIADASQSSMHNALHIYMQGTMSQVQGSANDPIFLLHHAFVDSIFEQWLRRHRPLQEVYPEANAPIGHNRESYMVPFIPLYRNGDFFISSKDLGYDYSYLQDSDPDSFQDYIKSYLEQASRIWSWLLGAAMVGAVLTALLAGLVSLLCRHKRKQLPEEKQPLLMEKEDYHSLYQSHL

[2] = target: T2, human tyrosinase N-glycosylation mutant Δ1 (N86Q) (human) (UniProt P14679)
T2 sequence: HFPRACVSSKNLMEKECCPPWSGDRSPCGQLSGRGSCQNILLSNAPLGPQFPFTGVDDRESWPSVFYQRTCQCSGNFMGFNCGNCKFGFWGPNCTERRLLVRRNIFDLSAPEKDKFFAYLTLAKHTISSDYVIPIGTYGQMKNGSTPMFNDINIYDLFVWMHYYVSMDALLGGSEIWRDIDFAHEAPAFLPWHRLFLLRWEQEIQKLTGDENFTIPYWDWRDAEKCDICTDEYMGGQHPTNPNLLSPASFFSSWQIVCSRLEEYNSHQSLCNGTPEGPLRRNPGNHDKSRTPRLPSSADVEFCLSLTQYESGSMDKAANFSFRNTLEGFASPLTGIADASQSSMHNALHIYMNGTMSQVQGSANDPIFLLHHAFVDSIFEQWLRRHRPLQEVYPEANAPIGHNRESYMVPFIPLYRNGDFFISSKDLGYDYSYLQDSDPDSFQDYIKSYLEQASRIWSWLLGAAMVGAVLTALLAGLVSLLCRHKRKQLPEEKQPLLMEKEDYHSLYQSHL

[3] = target: T3, human tyrosinase N-glycosylation mutant Δ2 (N111Q) (human) (UniProt P14679)
T3 sequence: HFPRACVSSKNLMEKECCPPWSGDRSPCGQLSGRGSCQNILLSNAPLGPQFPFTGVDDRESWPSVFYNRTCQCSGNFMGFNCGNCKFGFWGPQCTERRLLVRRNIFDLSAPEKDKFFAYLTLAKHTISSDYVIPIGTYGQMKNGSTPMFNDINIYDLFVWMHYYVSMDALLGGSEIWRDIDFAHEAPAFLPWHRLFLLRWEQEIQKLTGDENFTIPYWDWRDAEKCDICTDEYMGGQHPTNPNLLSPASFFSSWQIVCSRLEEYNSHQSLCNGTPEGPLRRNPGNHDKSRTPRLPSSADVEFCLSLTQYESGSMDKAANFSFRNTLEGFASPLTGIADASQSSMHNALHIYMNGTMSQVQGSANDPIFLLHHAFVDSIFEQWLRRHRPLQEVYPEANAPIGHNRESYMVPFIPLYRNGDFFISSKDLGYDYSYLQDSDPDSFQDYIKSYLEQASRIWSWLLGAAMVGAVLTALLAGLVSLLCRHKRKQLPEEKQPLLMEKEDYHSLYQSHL

[4] = target: T4, human tyrosinase N-glycosylation mutant Δ3 (N161Q) (human) (UniProt P14679)
T4 sequence: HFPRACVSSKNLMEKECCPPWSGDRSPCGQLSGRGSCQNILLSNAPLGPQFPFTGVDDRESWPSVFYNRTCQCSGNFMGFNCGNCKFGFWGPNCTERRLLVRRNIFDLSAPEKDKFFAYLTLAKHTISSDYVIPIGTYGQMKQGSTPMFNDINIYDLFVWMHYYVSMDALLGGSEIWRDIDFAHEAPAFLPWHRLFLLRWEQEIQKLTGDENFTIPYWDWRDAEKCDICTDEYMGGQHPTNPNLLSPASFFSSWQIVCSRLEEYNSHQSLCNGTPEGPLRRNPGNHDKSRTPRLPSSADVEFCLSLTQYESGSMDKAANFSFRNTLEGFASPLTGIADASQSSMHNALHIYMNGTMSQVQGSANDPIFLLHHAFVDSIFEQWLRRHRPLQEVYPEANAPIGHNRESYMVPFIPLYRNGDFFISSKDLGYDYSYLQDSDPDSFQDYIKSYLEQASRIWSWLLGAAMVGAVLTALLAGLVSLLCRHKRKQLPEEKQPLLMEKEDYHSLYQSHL

[5] = target: T5, human tyrosinase N-glycosylation mutant Δ6 (N337Q) (human) (UniProt P14679)
T5 sequence: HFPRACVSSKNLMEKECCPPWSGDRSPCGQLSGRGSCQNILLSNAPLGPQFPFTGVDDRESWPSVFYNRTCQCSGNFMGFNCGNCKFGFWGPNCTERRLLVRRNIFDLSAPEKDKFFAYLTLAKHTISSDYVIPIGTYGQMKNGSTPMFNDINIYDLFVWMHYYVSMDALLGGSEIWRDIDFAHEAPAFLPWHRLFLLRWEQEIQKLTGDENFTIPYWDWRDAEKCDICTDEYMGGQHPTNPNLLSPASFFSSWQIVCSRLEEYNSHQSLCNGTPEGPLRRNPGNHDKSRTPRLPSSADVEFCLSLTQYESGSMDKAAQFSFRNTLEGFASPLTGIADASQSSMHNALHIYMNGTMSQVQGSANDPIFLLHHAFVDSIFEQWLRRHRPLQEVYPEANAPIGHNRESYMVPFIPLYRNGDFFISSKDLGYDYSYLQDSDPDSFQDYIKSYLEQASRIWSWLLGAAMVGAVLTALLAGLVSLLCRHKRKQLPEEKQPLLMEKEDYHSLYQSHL

Measured: binding

B1: mouse EDEM fused to an HA-tag (protein, UniProt Q925U4 1-652)
chain: MQWRALVLGLVLLRLGLHAVLWLVFGLGPSMGFYQRFPLSFGFQRLRDPDGSGPVGPPGGPAWLHRPRRGTEGRLETPPEPGPTPGPGVCGPAHWGYALGGGGCGPDEYERRYSGAFPPQLRAQMRDLARGMFVFGYDNYMAHAFPQDELNPIYCRGRGPDRGDPSNLNINDVLGNYSLTLVDALDTLAIMGNSSEFQKAVKLVINTVSFDKDSTVQVFEATIRVLGSLLSAHRIITDSKQPFGDMTIEDYDNELLYMAHDLAVRLLPAFENTKTGIPYPRVNLKTGVPPDSNNETCTAGAGSLLVEFGILSRLLGDSTFEWVARRAVKALWNLRSNDTGLLGNVVNIQTGHWVGKQSGLGAGLDSFYEYLLKSYILFGEKEDLEMFNAAYQSIQSYLRRGREACNEGEGDPPLYVNVNMFSGQLMNTWIDSLQAFFPGLQVLIGDVEDAICLHAFYYAIWKRYGALPERYNWQLQAPDVLFYPLRPELVESTYLLYQATKNPFYLHVGMDILQSLEKYTKVKCGYATLHHVIDKSKEDRMESFFLSETCKYLYLLFDEENPVHKSGTRYMFTTEGHIISVDKRLRELPWKEFFSEDGERDQEEKFVHRPKSQELRVINSSSNCNRVPDERRYSLPLKSIYMRQIDQMVGLI
binds: all assays above
